Source: patent US10118131B2, “Method for preventing microbial growth on a filtration membrane” (KEMIRA OYJ, priority 2011, dated 2018)
Some entries share one result that the patent states for a list of compounds.

Experiment: Flux of membrane before and after soaking in biocide in synthetic sea water (flat sheet cell)
Details: soaked membranes of Table 1
Experimental: Flux and salt rejection of fresh membrane were measured before and after soaking. The membrane was placed in a flat sheet cell (Alfa Laval LabM20). The operating conditions were, feed pressure 20 bar (for sea water membrane 55 bar), salt (synthetic sea water prepared according to ASTM standard D1141), temperature 25° C. The flux measurement was done for 3 hours.
Soaking was done by mixing biocide with synthetic sea water. The concentration of the added biocide in the synthetic sea water was for PFA 14 and 84 mg/l as active substance, for peracetic acid (PAA) 7, 18 and 35 mg/l as active substance and sodium hypochlorite 20 mg/l as active substance. PFA was added to the synthetic seawater as an equilibrium solution having PFA content 14 weight-%, PAA was added as an equilibrium solution having PAA content 35 weight-% and sodium hypochlorite having concentration of 15 weight-%.
The soaking time was 24 or 144 hours. Performic acid equilibrium solution was made by mixing in 1:1 weight proportion of a solution that contained 50% hydrogen peroxide with a solution that contained 75 weight-% formic acid, 12 weight-% sulfuric acid and 13 weight-% water. After soaking membranes were placed again to the flat sheet cell and salt rejection and flux were measured at the same conditions as before soaking.

CC(=O)OO [Peracetic acid, peracetic acid]
differences between flux before and after soaking: > 15%
